Values from PubChem BioAssay AID1259308 (NCATS, 2017).

- Test: 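Knock-downs that increase output of a recombinant reporter protein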 (primary screen)
- System: human HEK293 embryonic kidney cells stably expressing firefly luciferase (HEK-CMV-Luc2-Hygro)
- Reagents: single siRNA against human genes, 0.8 pmol siRNA per well
- Time to read-out: 72 h
- Measurement: 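Luciferase light (ONE-Glo) measured on one replicate plate set and viability (CellTiter-Glo) on the other, scaled to a negative control siRNA, with robust z-scores and luciferase per cell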
- Direction: total luciferase, z-score: higher = more reporter protein produced
- Call rule: 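An siRNA counts as active if its total luciferase robust z-score exceeds 3; genes with two or more such siRNAs out of three were retested with fresh siRNAs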
- Calls: active = raised luciferase; inactive = no rise
Shown is an unselected part of about 59,000 deposited reagents. About 1,510 of them (2.6%) were called active. 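Calls use total luciferase alone and ignore viability, so some active siRNAs may act by altering cell number.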 A number with no mark means an inactive call. Further read-outs or replicates are left out here. No sequences are given here.

target gene	PubChem SID	total luciferase, z-score
CNDP2 (GeneID 55748)	SID160744251	-0.327
CNDP2 (GeneID 55748)	SID160744252	-0.0246
CNDP2 (GeneID 55748)	SID160744253	0.202
MAP3K6 (GeneID 9064)	SID160721387	1.39
MAP3K6 (GeneID 9064)	SID160721388	-0.598
MAP3K6 (GeneID 9064)	SID160721390	-0.296
AKIRIN2 (GeneID 55122)	SID160733581	0.978
AKIRIN2 (GeneID 55122)	SID160742996	0.185
AKIRIN2 (GeneID 55122)	SID160742997	-0.225
PSG6 (GeneID 5675)	SID160715156	0.101
PSG6 (GeneID 5675)	SID160715157	-0.919
PSG6 (GeneID 5675)	SID160715158	-1.24
C3 (GeneID 718)	SID160729662	-0.795
C3 (GeneID 718)	SID160729672	-1.29
C3 (GeneID 718)	SID160729682	-0.42
PDX1 (GeneID 3651)	SID160731143	-0.299
PDX1 (GeneID 3651)	SID160775902	1.99
PDX1 (GeneID 3651)	SID160775903	1.67

Continued (2 carried over from the part before).
target gene	PubChem SID	total luciferase, z-score
PDX1 (GeneID 3651)	SID160775902	1.99
PDX1 (GeneID 3651)	SID160775903	1.67
ETS2 (GeneID 2114)	SID160762157	-1.18
ETS2 (GeneID 2114)	SID160762167	-0.461
ETS2 (GeneID 2114)	SID160762178	0.842
DOK4 (GeneID 55715)	SID160744161	1.32
DOK4 (GeneID 55715)	SID160744162	0.469
DOK4 (GeneID 55715)	SID160744163	-1.05
NHERF2 (GeneID 9351)	SID160722004	0.335
NHERF2 (GeneID 9351)	SID160722005	0.645
NHERF2 (GeneID 9351)	SID160722006	-1.01
FAM20A (GeneID 54757)	SID160742111	-0.17
FAM20A (GeneID 54757)	SID160742112	0.0217
FAM20A (GeneID 54757)	SID160742113	-0.355
GNA11 (GeneID 2767)	SID160771794	1.16
GNA11 (GeneID 2767)	SID160771803	-2.81
GNA11 (GeneID 2767)	SID160771812	-1.23
SLC9A1 (GeneID 6548)	SID160716909	1.8
SLC9A1 (GeneID 6548)	SID160716910	0.131
SLC9A1 (GeneID 6548)	SID160731756	1.36
PMPCA (GeneID 23203)	SID160730832	4.44 (active)
PMPCA (GeneID 23203)	SID160746153	0.146
PMPCA (GeneID 23203)	SID160746261	-0.0322
